# According to article PMC10454665, “Structural Analysis of Plasmodium falciparum Hexokinase Provides Novel Information about Catalysis Due to a Plasmodium-Specific Insertion” (International Journal of Molecular Sciences, 2023):
# Results are given in words; binding and its absence hold for the method and conditions named. Some entries that bind do so weakly or less than the wild type.
# B1: Plasmodium falciparum hexokinase (enzyme)
# chain: MSEYDIAKNDVTYTKLDTIECDIPINEELSWRINKFVNQLRISYSTLEEFVDNFVYELKKGLEAHRKHPNLWIPHECSFKMLDSCIANIPTGQEKGTYYAIDFGGTNFRAVRASLDGKGKIKRDQETYSLKFTGSYSHEKGLLDKHATASQLFDHFAERIKYIMGEFNDLDNKEVKSVGFTFSFPCTSPSINCSILIDWTKGFETGRATNDPVEGRDVCKLMNDAFVRAAIPAKVCCVLNDAVGTLMSCAYQKGRGTPPCYIGIILGTGSNGCYYEPEWKKYKYAGKIINIEFGNFDKDLPTSPIDLVMDWYSANRSRQLFEKMISGAYLGEIVRRFMVNVLQSACSKKMWISDSFNSESGSVVLNDTSKNFEDSRKVAKAAWDMDFTDEQIYVLRKICEAVYNRSAALARGTIAAIAKRIKIIEHSKFTCGVDGSLFVKNAWYCKRLQEHLKVILADKAENLIIIPADDGSGKGAAITAAVIALNADIPQLP
# notes: Hexokinase of Plasmodium falciparum, PlasmoDB PF3D7_0624000, gene ordered codon-optimised for E. coli and cloned into pET30a-c(+); the model holds I25-N486 (subunit A) and I23-I489 (subunit B); The PlasmoDB id is that of strain 3D7; also called PfHK; P. falciparum hexokinase
# Biological target: Plasmodium falciparum hexokinase (Plasmodium falciparum) (UniProt Q02155)
# Experiment: crystal structure; sitting drop, 20% PEG 3350, 200 mM sodium citrate, 0.1 M sodium citrate buffer pH 3.4-4.0; 5-8 mg/mL PfHK with 10 mM glucose, 10 mM ATP, 5 mM DTT; space group P3(1)21, two monomers in the asymmetric unit, tetramer by a crystallographic 2-fold axis; both purified
binder,measurement,value
B1,binding,binds
